From ChEMBL document CHEMBL5241054, “Effective anti-aromatase therapy to battle against estrogen-mediated breast cancer: Comparative SAR/QSAR assessment on steroidal aromatase inhibitors” (Eur J Med Chem, 2020) come the findings set out here.

The target in the experiment is T1, Aromatase (Homo sapiens, UniProt P11511).
T1 sequence (P11511 whole entry): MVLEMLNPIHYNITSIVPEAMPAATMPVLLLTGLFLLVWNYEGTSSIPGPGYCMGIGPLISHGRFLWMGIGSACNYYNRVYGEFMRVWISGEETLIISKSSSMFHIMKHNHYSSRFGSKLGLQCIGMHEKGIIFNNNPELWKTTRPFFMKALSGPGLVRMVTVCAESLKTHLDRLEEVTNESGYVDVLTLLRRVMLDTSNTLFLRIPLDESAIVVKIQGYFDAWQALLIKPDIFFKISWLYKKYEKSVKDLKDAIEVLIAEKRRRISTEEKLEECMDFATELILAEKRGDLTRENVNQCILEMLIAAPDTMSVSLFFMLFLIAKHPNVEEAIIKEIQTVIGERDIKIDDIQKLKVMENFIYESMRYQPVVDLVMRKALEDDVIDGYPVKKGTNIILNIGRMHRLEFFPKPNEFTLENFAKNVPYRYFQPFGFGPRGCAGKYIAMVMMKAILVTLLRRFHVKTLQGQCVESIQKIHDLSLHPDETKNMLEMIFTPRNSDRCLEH

A word on the IC50: it is the midpoint of a concentration-inhibition curve. `C[C@]12C[C@@H](F)C(=O)C=C1CC[C@@H]1[C@@H]2CC[C@]2(C)C(=O)CC[C@@H]12` had an IC50 of 1000 nM.
